Reference: publication PMC10163288
The list shows a part of the results.

B1: il2ra_site2_3nfp_normal_mot_HHH_b2_07840_000000026_0001_18_34_H_._HHH_b2_06318_af2_0001_0000100003_0000001_1_af2pred_0001_1_af2pred_swapped (protein)
chain: SSSSDEEELKELKEELERLAKEGDYEELEELLKEAAQIAAEEGDEELFALVTELLELVLRYSSSS
B2: il2ra_site2_3nfp_sap_21_mot_HHH_b1_04781_af2_000000057_0001_1_18_H_._4439246daae91da06a95c8dcf57bacfb_0001_af2_0001_0000300023_0000001_0_0001 (protein)
chain: SSSSSEEAEELLKEAKEALEEGDLAKATHLAVRASEIALKLNDEELLREIMKLYEELARRYSSSS
B3: il2ra_site1_2b5i_normal_mot_HHH_b1_01495_af2_000000272_0001_42_56_H_._HHH_b2_01987_af2_0001_0000200003_0000001_1 (protein)
chain: SSSSSSDEAAELFLEASRLIQRGNQEEAKELLEEAIKIARELGNEKTVKDLEHMLERLSSSSSSS
B4: il2ra_site1_2b5i_sap_16_mot_HHH_b1_00326_af2_000000000_0001_40_56_H_._HHH_b1_04725_0001_0000500021_0000001_0_0001_af2pred_0001_af2pred (protein)
chain: SSSSDAAKEAARLFREANEAYRNGNPEEARKLLEKAEELAEEGNNKSLVRAIRDALEQLESSSSS
B5: il2ra_site2_3nfp_normal_mot_HHH_b2_03978_000000149_0001_1_20_H_._HHH_b2_05280_0001_0000700015_0000001_0 (protein)
chain: SSSSDEEEELEELRRQLEEAVEEGDPEAVAELALKASALAFELGDHEFFAEISEIFHRFFSSSSS
B6: il2ra_site1_3nfp_normal_mot_HHH_b2_04693_000000156_0001_1_17_H_._145601744709a037d9715a1ced05e5a7_0001_1_0001_0000200010_0000001_1 (protein)
chain: SAEERVKEAKELVPPELQELLERALELAHKRQDPKLAELLIRAVAAIQLGDPEKAEEVLKELEER
B7: il2ra_site2_2erj_sap_19_mot_87b7e031a888ead1881e674a44c3f2a3_0001_1_af2_000000022_0001_37_50_H_._HHH_b2_05123_0001_0000200011_0000001_0_0001 (protein)
chain: SSSSNEKLKRLYELANRLLKLVSEGDEEEFQEVFEELERLIEELNSDTARRFLERLRRLLHSSSS
B8: il2ra_site1_2b5i_normal_mot_HHH_b2_04910_000000118_0001_1_19_H_._HHH_b1_01775_0001_0000400021_0000001_0 (protein)
chain: SSSSSDSEEAQELFKEADELDRQGDEEEARRVLEQALELAEEGGSPQLFKMIESALRQLGSSSSS
B9: il2ra_site1_2b5i_normal_mot_HHH_b2_04910_000000118_0001_1_19_H_._HHH_b2_00346_af2_0001_0000700011_0000001_0_af2pred_dldesign_0_af2pred (protein)
chain: SSSSSPEIRRALELFRQAEAAFKAGDEATARALLEEALKLVEAAGAKLLAKIIKNALEQIGSSSS
B10: il2ra_site2_3nfp_normal_mot_49a7c9051cacde34b31d84fabeb7f3ea_0001_af2_000000030_0001_39_52_H_._HHH_b2_06514_af2_0001_0000400008_0000001_1 (protein)
chain: SSSSDEEEEELEKLQELLKRLKEEGDRFELLRVLLRASQLAAKLGDREAVRIELKLYEELASSSS
B11: il2ra_site1_1z92_sap_24_mot_HHH_b1_05516_af2_000000202_0001_21_38_H_._HHH_b1_02137_0001_0000200010_0000001_0_0001 (protein)
chain: DEKEEIERLLREAGAPPELIELVEEVFEIQAQYSERAARFVVEQVERKVRKGNPEKAEKLLRKLL
B12: il2ra_site2_3nfp_sap_17_mot_HHH_b2_06150_000000217_0001_39_53_H_._HHH_b2_05191_0001_0000100001_0000001_0_0001 (protein)
chain: SSSKAEEYVEAALELARDALEAGNPELAKRHIHVAEQVAELLGDEELEELLKELLEEVERGSSSS
B13: il2ra_site1_1z92_sap_9_mot_32063319e58c7a3ce97db74413982e08_0001_1_000000206_0001_18_33_H_._HHH_b2_02076_0001_0000300012_0000001_0_0001 (protein)
chain: SSSSNLEELIRFLFEDLELLLEHGNEHAFKWALELLERLAKRHNDEEAEELVRRIEELRENSSSS
B14: il2ra_site2_2erj_sap_13_mot_HHH_b1_03114_000000021_0001_1_16_H_._HHH_b1_00339_0001_0000900017_0000001_0_0001 (protein)
chain: SSSSLRELYELRARILELLARGDLEEAERLLEELRKLAEETNSPNVEEAVEDLERRIREDLSSSS
B15: il2ra_site1_1z92_normal_mot_01209686ea234b34325f918445e6eade_0001_af2_000000154_0001_18_33_H_._HHH_b1_01979_0001_0000200020_0000001_0_af2pred_0001_af2pred_1_swa … (protein)
chain: SSSSDELERFAQEVVEELVEEFGLDEHDKEALEKAAELAVKAGLSERAIELALRRAAELASSSSS
B16: il2ra_site2_3nfp_sap_20_mot_ems_3hM_287_af2_000000177_0001_46_64_H_._HHH_b1_03267_af2_0001_0000400046_0000001_0_0001 (protein)
chain: SSSSSDHEFYERVLELLKEANKISDPEERREVLEEAERLAEEAGSEVLKRSVEWVAKLLNSSSSS
B17: il2ra_site2_2erj_normal_mot_HHH_b1_06259_af2_000000246_0001_1_17_H_._HHH_b1_02157_af2_0001_0000300038_0000001_0 (protein)
chain: SSSSDREEEIVREIVEELGLDEYVQLFLELTARFALEAGASEEEVERDLRESAEIFEEAESSSSS
B18: il2ra_site1_2b5i_normal_mot_HHH_b2_04910_000000118_0001_1_19_H_._HHH_b1_04704_af2_0001_0000100014_0000001_1_af2pred_dldesign_0_af2pred (protein)
chain: SSSSSAETEEALRLFLEADKLFKEGKLEETKELLEKALELAKKGKDNTLVRMIESALEDLESSSS
B19: il2ra_site2_2erj_sap_20_mot_12d8a9d2629acc90dc040184e432c6f0_0001_000000022_0001_16_30_H_._HHH_b1_00265_0001_0000200004_0000001_0_0001 (protein)
chain: SSSSDVEEEVRRLLEEAQELREEGDPKKVLELLLEAFELAMENRDEEAAKLINRVFEELDKSSSS

Target: il2ra, P01589
Test: yeast display titration

Apparent Kd, inactive:
B1 no binding seen
B2 no binding seen
B3 no binding seen
B4 no binding seen
B5 no binding seen
B6 no binding seen
B7 no binding seen
B8 no binding seen
B9 no binding seen
B10 no binding seen
B11 > 1.56 nM
B12 no binding seen
B13 no binding seen
B14 no binding seen
B15 no binding seen
B16 > 271 nM
B17 no binding seen
B18 no binding seen
B19 no binding seen

Fetched one by one from above, 2 records:
Apparent Kd, inactive:
B9 no binding seen
B11 > 1.56 nM
